Among all 360,000 compounds or so, about 610 (0.17%) were called active. The shares of active, inactive and inconclusive entries below differ from those in the screen. Cut-off read from the data, not from the text of the source: active = inhibition above about 30%; inconclusive = no clear call, values can overlap the other calls; inactive = below that.
These compounds were tested on Botulinum neurotoxin type A light chain protease (Clostridium botulinum A str. ATCC 3502) (assay: blockers of BoNT/A LC substrate cleavage – biochemical, flow cytometry, MLPCN library, primary screen (AID 588499; note: plate controls were buffer without enzyme for full effect and enzyme alone for no effect)). Settings: multiplex microsphere protease substrate cleavage, at 10 µM, stronger effect = higher value.

| Compound | inhibition |
| --- | --- |
| CCOC(=O)C1=C(c2ccccc2)N=c2sc(=Cc3cc(OC)c(OC)c(OC)c3)c(=O)n2C1c1cccs1 (centres undefined) | active: 32.4% |
| COc1cc(C2C(C#N)=C(N)N(N(C)C)C3=C2C(=O)CC(C)(C)C3)cc(OC)c1OC (centres undefined) | inactive: -12.8% |
| COc1ccc(Cl)cc1S(=O)(=O)NC(C)c1cnn(-c2ccccn2)c1C (centres undefined) | inactive: -0.2% |
| COc1cc(C(=O)NCC(=O)N2CCN(S(=O)(=O)c3ccccc3)CC2)cc(OC)c1OC | inconclusive: 5.6% |
| COc1ccc(C)cc1Nc1n[n+](-c2ccccc2)c(-c2cc([N+](=O)[O-])cc(OC)c2O)s1 | inactive: 0.4% |
| CC1CC(=O)NN=C1c1cccs1 (centres undefined) | inconclusive: -3.3% |
| CC(=O)C(C)Oc1ccc2c3c(c(=O)oc2c1)CCCCC3 (centres undefined) | inconclusive: 2.6% |
| CC(C)(C)c1cn(-c2ccc(F)cc2)c(=S)[nH]1 | inconclusive: 6% |
| CCOC(=O)N1CCN(C(=O)COc2ccc(Br)cc2Cl)CC1 | inconclusive: 0.2% |
| Cc1ccc(S(=O)(=O)Nc2cccc(C(=O)NCCCN3CCCC3=O)c2)cc1F | inconclusive: -0.7% |
| Cc1c(/C=N/NC(=O)c2ccc(O)cc2)c2ccccn2c1C(=O)c1ccc(F)cc1 | inactive: 1.1% |
| CC(C)COC(=O)N(C)C[C@@H]1OCc2cnnn2CCCC(=O)N([C@@H](C)CO)C[C@H]1C | inactive: 0.1% |
| COCCN1C(=O)/C(=C/c2ccc(N3CCCC3)cc2C)SC1=S | active: 100% |
| Cc1cccc(/C=C/c2onc(C)c2S(=O)(=O)N2CCC(C(=O)NC(C)(C)C)CC2)c1 | inactive: -0.4% |
| CC(C)CC(=O)OC(C)(C)[C@@H]1Cc2c(ccc3ccc(=O)oc23)O1 | inactive: -0.3% |
| Cc1ccc(C)c2[nH]c(=O)c(C(c3nnnn3Cc3ccccc3)N3CCc4ccccc4C3)cc12 (centres undefined) | inconclusive: 4.7% |
| O=C(NCCCN1CCCC1=O)c1nnc(Cc2c(F)cccc2Cl)o1 | inconclusive: -1.4% |
| CCn1c(SCC(=O)Nc2cccc(OC)c2)nnc1-c1ccc(Cl)cc1 | inconclusive: 3.6% |
| COC(=O)/C(=N/Nc1ccccc1OC)N1CCCc2ccccc21 | inconclusive: 8.3% |
| COc1cccc(-c2cc3nc(C)c(C)c(N4CCN(C(=O)c5ccoc5)CC4)n3n2)c1 | inactive: -0.2% |
| NC(=O)c1ccccc1OCC(=O)NS(=O)(=O)c1ccccc1 | inconclusive: -0.1% |
| COc1ccc2nc(SCC(N)=O)[nH]c2c1 | inconclusive: -1.4% |
| CCOC(=O)C1CCCN(C(=O)N2CCOCC2)C1 (centres undefined) | inconclusive: 3.7% |
| CCOC(=O)c1c(CN2CCOCC2)n(-c2ccccc2)c2cc(Br)c(O)cc12 | inconclusive: -1.8% |
| COc1ccc(NC(=O)c2cn(CCC#N)nc2-c2ccc(OC)c(OC)c2)cc1 | inconclusive: -2.9% |
| NS(=O)(=O)c1ccc(NCc2c(F)cccc2Cl)cc1 | active: 38.3% |
| Cc1ccc(-n2nc3c(c2NC(=O)c2ccco2)CS(=O)C3)c(C)c1 (centres undefined) | inconclusive: -2.2% |

| Compound | inhibition |
| --- | --- |
| CC(=O)N1CCN(S(=O)(=O)c2ccc(C)cc2)C1C (centres undefined) | inconclusive: 21.3% |
| CC(C)OC(=O)c1cc(C(=O)c2cc(F)ccc2O)coc1=N | inactive: -0.3% |
| Cc1ccc(-n2c3nc(=O)[nH]c(=O)c-3cc3c(C)nn(-c4ccccc4)c32)c(C)c1 | inactive: 0.6% |
| CC(C)(C)C(=O)N1CCN(c2ccc([N+](=O)[O-])cc2Cl)CC1 | inactive: 0.9% |
| COc1ccc(CNS(=O)(=O)c2ccc(OC)cc2)cc1 | inactive: -1.2% |
| CC1(C)CC(=O)C2=C(C1)N(Cc1ccc(F)cc1)C(=O)C2(NC(=O)c1cccnc1)C(F)(F)F (centres undefined) | inconclusive: -3.3% |
| Cc1cc(/C=C(/C#N)c2nc3ccccc3[nH]2)c(C)n1-c1cc(C(=O)O)cc(C(=O)O)c1 | inactive: 1.1% |
| CC(C)Nc1oc(Cc2cccc3ccccc23)nc1C#N | inconclusive: -1.9% |
| CC1(C)C[C@H]2C3=CCC4[C@@]5(C)CC[C@H](O)C(C)(C)C5CC[C@@]4(C)[C@]3(C)[C@@H](O)[C@@H](O)[C@@]2(CO)[C@@H](O)[C@@H]1O (some centres undefined) | inactive: -0.4% |
| CC(=O)Nc1ccc(-c2ccnc3c2CC(C)(C(=O)NCCN(C)C)O3)cc1 (centres undefined) | inactive: 0.2% |
| N#C/C=C\Oc1ccc(Cl)cc1N | inconclusive: -0.7% |
| Cc1cc(C(=O)CSc2n[nH]c(N)n2)c(C)n1-c1ccc(F)cc1 | inconclusive: -0.4% |
| Cc1cc(C(=O)COC(=O)C2=NNC(=O)CC2)c(C)n1-c1cccc(C(F)(F)F)c1 | inactive: 6.4% |
| COC(=O)[C@H](CC(C)C)NC(=O)CC[C@H]1O[C@@H](n2cc(C)c(=O)[nH]c2=O)C[C@@H]1O | inactive: 0.1% |
| Cc1cccc(C)c1N1C(=O)C2ON(c3ccccc3)C(c3ccncc3)C2C1=O (centres undefined) | inconclusive: -0.2% |
| C=CCn1c(C)cc(C(=O)COC(=O)/C=C/c2c(C)nn(C3CCS(=O)(=O)C3)c2Cl)c1C (centres undefined) | inconclusive: -1.4% |
| CCOC(=O)C1(CCOc2ccccc2)CCN(Cc2ccc(O)cc2)CC1 | inconclusive: -1.5% |
| COc1ccc(-c2c(C#N)c(N)nc3sc(C(=O)c4ccccc4)c(N)c23)cc1 | active: 44.4% |
| Cc1ccc(C(=O)Nc2ccc(S(=O)(=O)NCc3ccco3)cc2)cc1 | inactive: 2.5% |
| COc1cc([N+](=O)[O-])ccc1-c1ccc(/C=N/NC(=O)OC(C)(C)C)o1 | inconclusive: 23.2% |
| CC(C)C1Cc2nc(Cl)c(C#N)cc2CO1 (centres undefined) | inconclusive: 22.2% |
| O=C(NC1CCCCC1)N1CCCCCCC1 | inactive: -1.4% |
| COc1ccc(COc2ccc(S(=O)(=O)N3CCCC3)cc2C(N)=O)cc1F | inactive: 1% |
| O=CC1=C(N2CCOCC2)/C(=C\c2ccccc2)CC1 | inactive: 0% |
| CCN1C(=O)C(CC(=O)Nc2ccc(OC)cc2)N(Cc2cccs2)C1=S (centres undefined) | inconclusive: -3.7% |
| CCc1nnc(NC(=O)Cn2nc(-c3ccccc3OC)ccc2=O)s1 | inconclusive: 0.8% |
| CCOC(=O)c1cccc(NC(=O)CN2CCN(c3ccc(OC)cc3)CC2)c1 | inconclusive: -0.7% |

Ordered by heavy-atom count (rising): part of the list above

| Compound | inhibition |
| --- | --- |
| O=C(NC1CCCCC1)N1CCCCCCC1 | inactive: -1.4% |
| CCc1nnc(NC(=O)Cn2nc(-c3ccccc3OC)ccc2=O)s1 | inconclusive: 0.8% |
| COC(=O)[C@H](CC(C)C)NC(=O)CC[C@H]1O[C@@H](n2cc(C)c(=O)[nH]c2=O)C[C@@H]1O | inactive: 0.1% |
